The chains behind the UniProt entries cited, without tags or fusion partners. Where a name states a change or a piece, a line headed by the entry shows the natural chain unless it says otherwise.
UniProt P20594: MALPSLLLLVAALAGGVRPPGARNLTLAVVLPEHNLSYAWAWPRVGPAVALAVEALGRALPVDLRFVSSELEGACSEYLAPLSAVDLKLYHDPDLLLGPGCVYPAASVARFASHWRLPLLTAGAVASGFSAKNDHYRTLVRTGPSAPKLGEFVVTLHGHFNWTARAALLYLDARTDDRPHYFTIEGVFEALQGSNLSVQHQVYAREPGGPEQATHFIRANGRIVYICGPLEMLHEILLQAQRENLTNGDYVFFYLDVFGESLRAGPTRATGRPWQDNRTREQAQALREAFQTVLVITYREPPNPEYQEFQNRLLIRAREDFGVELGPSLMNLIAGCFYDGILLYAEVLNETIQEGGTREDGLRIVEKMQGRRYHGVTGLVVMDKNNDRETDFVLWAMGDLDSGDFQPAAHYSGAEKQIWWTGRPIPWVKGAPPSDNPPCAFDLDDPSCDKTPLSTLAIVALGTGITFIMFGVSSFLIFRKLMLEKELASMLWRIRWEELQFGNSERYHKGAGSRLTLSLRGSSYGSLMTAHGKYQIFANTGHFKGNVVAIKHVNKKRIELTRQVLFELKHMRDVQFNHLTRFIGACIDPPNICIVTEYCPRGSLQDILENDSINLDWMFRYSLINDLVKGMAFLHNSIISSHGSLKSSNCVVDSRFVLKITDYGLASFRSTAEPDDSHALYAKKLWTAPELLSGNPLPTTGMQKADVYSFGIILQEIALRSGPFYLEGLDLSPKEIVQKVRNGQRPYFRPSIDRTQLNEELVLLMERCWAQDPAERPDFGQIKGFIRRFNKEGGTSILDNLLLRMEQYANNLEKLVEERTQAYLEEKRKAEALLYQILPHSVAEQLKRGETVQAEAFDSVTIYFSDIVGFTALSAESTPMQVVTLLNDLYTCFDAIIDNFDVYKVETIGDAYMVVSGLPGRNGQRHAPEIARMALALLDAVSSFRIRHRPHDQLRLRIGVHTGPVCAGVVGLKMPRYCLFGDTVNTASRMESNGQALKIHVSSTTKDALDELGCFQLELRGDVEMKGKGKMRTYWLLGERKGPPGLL

Out of some 1,400 compounds screened, about 940 (67%) were called active. The set was probably picked from earlier hits. The inconclusive results got no clear call from the source; some entries with a clear call stand among them for comparison. Calls follow the shape of the full dose curve. A potency beside an inconclusive call is a rough fit, not a confirmed value.
What follows are molecules tested against Atrial natriuretic peptide receptor 2 (Homo sapiens) (UniProt P20594) (assay: Natriuretic polypeptide receptor (hNpr2) antagonism - Subtype selectivity assay). Settings: HEK293 hNpr2 GloSensor cGMP luminescence, CNP-stimulated; series mostly up to 57.6 µM.
Summary of the method: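 HEK293 cells expressing hNpr2 and the GloSensor cGMP biosensor were loaded with 2% GloSensor reagent for 2 h, then given test compounds for 30 min at ambient temperature. Baseline luminescence was read, 1 nM hNppC was added, and luminescence was read again after 20 min.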
In the case of CCCCCCN(CCC(=O)NCCc1ccccc1)C(=O)c1cc(C)oc1C, the Potency is reported as inconclusive: 24.3 µM [inhibitor, partial curve]. In the case of COc1ccc(CC(=O)NC2CCN(c3cc(-c4ccc(OC)cc4)[nH]n3)CC2)cc1, the Potency is reported as inconclusive: 6.85 µM [inhibitor, full curve, poor fit]. In the case of O=C(c1cccc(F)c1)N1CCOC[C@H](Oc2ccc(C(F)(F)F)cc2)C1, the Potency is reported as inconclusive: 49.8 µM [inhibitor, single point]. In the case of C[S+](=O)([O-])c1ccc(-c2cc(C(=O)NCCc3ccc(Cl)cc3)nn3cccc23)cc1, the Potency is reported as inconclusive: 19.3 µM [inhibitor, partial curve]. Cc1nn(-c2ccc(F)cc2)c(Oc2ccc(F)cc2F)c1CCC(=O)NCC1CC1 was tested, and the Potency was inconclusive: 19.3 µM [inhibitor, partial curve]. For O=C(NCc1ccccc1)c1ccccc1OC1CN(Cc2ccsc2)C1, the Potency was “inactive”. With CCN(CCCNC(=O)c1nnn2cc(-c3ccccc3)[nH]c(=O)c12)c1ccccc1 the Potency was “inactive”. For Cn1nc(C2CCN(S(=O)(=O)c3ccc4c(c3)CCCC4)CC2)n(C2CCCC2)c1=O, the Potency was active: 19.3 µM. COc1ccc(NC(=O)Cc2c[nH]c3ncc(-c4ccccc4)cc23)cn1 was tested, and the Potency was inconclusive: 28 µM [inhibitor, partial curve]. CC1(C)[C@H](Cc2cc(CN3CCN(c4ccccc4)CC3)on2)C[C@@H]1NC(=O)NCc1ccccc1 was tested, and the Potency was inconclusive: 24.3 µM [inhibitor, partial curve]. For Cc1ccc(S(=O)(=O)N2CCc3c(C(=O)NCC(C)C)cccc32)cc1, the Potency was inconclusive: 21.7 µM [inhibitor, partial curve]. For O=C(c1ccc(F)cc1)N1CCC(n2cc(-c3nc(-c4ccccc4)no3)nn2)CC1, the Potency was inconclusive: 21.7 µM [inhibitor, partial curve]. O=C(Nc1ccc(F)c(Cl)c1)C1CCc2sc(C(=O)N3CCOCC3)cc2C1 (centres undefined) was tested, and the Potency was active: 12.2 µM. In the case of Cc1cccc(-n2ncc3c2CCCC3NC(=O)CCC(F)(F)F)c1C (centres undefined), the Potency is reported as inconclusive: 24.3 µM [inhibitor, partial curve]. COc1ccc(C(=O)N[C@H]2CO[C@H]3[C@@H]2OC[C@H]3OC(=O)Nc2ccccc2)cc1 was tested, and the Potency was active: 35.3 µM. In the case of CN(Cc1cccc(C(=O)Nc2cccc(C#N)c2)c1)CC1COCCO1 (centres undefined), the Potency is reported as inconclusive: 19.3 µM [inhibitor, partial curve]. With CC(C)c1noc(-c2cn(C3CCN(C(=O)c4cccc(Br)c4)C3)nn2)n1 (centres undefined) the Potency was active: 21.7 µM. In the case of COc1cccc(S(=O)(=O)N2CCC3(CC2)CC(N(C)Cc2ccccc2)CCO3)c1 (centres undefined), the Potency is reported as inconclusive: 21.7 µM [inhibitor, partial curve]. For COc1ccc(C2Cn3nnc(C(=O)N4CCN(C(=O)Cc5cccc(F)c5)CC4)c3CO2)cc1 (centres undefined), the Potency was active: 24.3 µM. With O=C(CC1CCCCC1)N1CCC(n2cc(-c3nc(-c4ccccc4)no3)nn2)CC1 the Potency was active: 21.7 µM. In the case of O=C1N[C@H](CC(=O)N2CCN(c3ccc(C(F)(F)F)cn3)CC2)C(=O)Nc2ccccc21, the Potency is reported as inconclusive: 24.3 µM [inhibitor, partial curve]. With COc1cccc(C2Cn3nnc(-c4nc(-c5ccccc5)no4)c3CO2)c1 (centres undefined) the Potency was inconclusive: 15.3 µM [inhibitor, partial curve]. In the case of O=C(Cc1c[nH]c2ncc(-c3ccccc3Oc3ccccc3)cc12)NCc1cccnc1, the Potency is reported as active: 22.2 µM. COC(=O)c1ccc(COC(=O)C2=CN(C)S(=O)(=O)N=C2C)o1 was tested, and the Potency was inconclusive: 24.3 µM [inhibitor, partial curve]. In the case of N#Cc1ccc(CN2CCC3(CC2)CC(c2cccc(C(F)(F)F)c2)=NO3)cc1, the Potency is reported as inconclusive: 21.7 µM [inhibitor, partial curve]. COc1ccc(S(=O)(=O)N2CCc3c(C(=O)Nc4cccc(C)c4)cccc32)cc1 was tested, and the Potency was inconclusive: 19.3 µM [inhibitor, partial curve]. With COc1ccc(-c2noc(CC3CCN(C(=O)Cc4ccc(C)cc4)CC3)n2)cc1 the Potency was inconclusive: 43.2 µM [inhibitor, single point]. N#Cc1cccc(-c2ccnc(N[C@H]3CO[C@H]4[C@@H]3OC[C@H]4OC(=O)Nc3ccc(Oc4ccccc4)cc3)n2)c1 was tested, and the Potency was “inactive”. CC(=O)NCC1CCCN(Cc2ccc(-c3ccccc3C#N)o2)C1 (centres undefined) was tested, and the Potency was inconclusive: 21.7 µM [inhibitor, partial curve]. In the case of COc1ccc(-c2cnc3[nH]cc(CC(=O)Nc4cccc(N(C)C)c4)c3c2)cc1, the Potency is reported as inconclusive: 44.4 µM [inhibitor, single point]. In the case of COCC1CN(C2CCC2)CC12CCN(C(=O)NCCc1ccccc1)CC2 (centres undefined), the Potency is reported as “inactive”. O=C(c1ccccc1)N1CCC(C(=O)N2CCC(Cc3nc(-c4ccc(F)cc4)no3)CC2)CC1 was tested, and the Potency was active: 19.3 µM. With O=C(c1cccc(Br)c1)N1CCN(c2cc(-c3ccc(Cl)cc3)[nH]n2)CC1 the Potency was inconclusive: 21.7 µM [inhibitor, partial curve]. In the case of COc1ccc(C2Cn3nnc(C(=O)N4CCN(C(=O)Cc5ccc(Cl)cc5)CC4)c3CO2)cc1 (centres undefined), the Potency is reported as inconclusive: 19.3 µM [inhibitor, partial curve]. With COc1cc(-c2cc(C)c3c(OC)ccc(OC)c3n2)cc2c1OCCNC2 the Potency was inconclusive: 27.3 µM [inhibitor, single point]. For COC(=O)[C@@H]1Cc2ncn(Cc3ccc(Cl)cc3)c2CN1Cc1cccc(C#N)c1, the Potency was inconclusive: 44.4 µM [inhibitor, single point]. In the case of COc1ccccc1C(=O)N1CCN(C(=O)c2nnn3c2COC(c2ccc(C)cc2)C3)CC1 (centres undefined), the Potency is reported as “inactive”. In the case of COc1ccc(C2Cn3nnc(-c4nc(C(C)(C)C)no4)c3CO2)cc1 (centres undefined), the Potency is reported as inconclusive: 19.3 µM [inhibitor, partial curve]. COc1ccc(C(=O)N2CCCN(c3cc(-c4ccccc4)[nH]n3)CC2)c(OC)c1 was tested, and the Potency was inconclusive: 24.3 µM [inhibitor, partial curve]. With O=C1NCc2ccccc2CC12CCCN(CC1CC=CCC1)C2 (centres undefined) the Potency was “inactive”. With COc1ccc(CCC(=O)N2CCC(Cc3nc(-c4ccccc4)no3)CC2)cc1 the Potency was active: 15.3 µM. In the case of COc1cc(Cl)ccc1C(=O)NC1CCN(c2cc(C(F)(F)F)nc(C)n2)CC1, the Potency is reported as active: 21.7 µM. With N#Cc1ccc([S+](=O)([O-])N2CCC3(CC2)OCCN(CC2CC2)C3=O)cc1 the Potency was inconclusive: 31.4 µM [inhibitor, partial curve]. COc1ccc(CN2CCn3c(nn(-c4ccc([N+](=O)[O-])cc4)c3=O)C2)cc1 was tested, and the Potency was active: 21.7 µM. With COCC(NC(=O)c1ccc2nc(C3CCCCC3)oc2c1)c1ccnn1C (centres undefined) the Potency was inconclusive: 30.6 µM [inhibitor, single point]. In the case of C[C@@H]1C(=O)O[C@H]2[C@H]1CC[C@@]1(C)Cc3sc(NC(=O)c4ccc(N(C)C)cc4)nc3[C@@H](C)[C@H]21, the Potency is reported as inconclusive: 12.2 µM [inhibitor, partial curve]. Cc1nc2c(c(-c3ccc(O)cc3)n1)CN(Cc1cccc3ccccc13)CC2 was tested, and the Potency was “inactive”. For O=[S+]([O-])(Nc1ccccc1)c1ccc2c(c1)OCCN(Cc1cccnc1)C2, the Potency was inconclusive: 35.3 µM [inhibitor, partial curve]. Cc1nc(-c2ccc(OC3CCN(C(=O)c4cc(C)n(C)n4)C3)cc2)no1 (centres undefined) was tested, and the Potency was inconclusive: 43.2 µM [inhibitor, single point]. For COc1ccc(C(=O)N2CCC(n3cc(-c4nc(C(C)C)no4)nn3)CC2)cc1F, the Potency was “inactive”. COc1ccc(C2Cn3nnc(C(=O)N4CCN(C(=O)c5ccc(F)cc5)CC4)c3CO2)cc1 (centres undefined) was tested, and the Potency was inconclusive: 21.7 µM [inhibitor, partial curve]. With CC1=NS(=O)(=O)N(C)C=C1C(=O)OCc1nc(Cc2ccc(C)cc2)no1 the Potency was inconclusive: 19.3 µM [inhibitor, partial curve]. CC(C)S(=O)(=O)N1CC(Oc2ccc(-c3noc(-c4cccnc4)n3)cc2)C1 was tested, and the Potency was inconclusive: 17.2 µM [inhibitor, partial curve]. In the case of C(=C\c1ccccc1)/CN1CCN(Cc2nc(COc3ccccc3)no2)CC1, the Potency is reported as “inactive”. O=C(Cc1ccccc1Cl)NC1CCN(c2cc(C(F)(F)F)ncn2)CC1 was tested, and the Potency was active: 15.3 µM. With COc1ccccc1CNC(=O)C1CCc2ncc(-c3ccsc3)n2C1 (centres undefined) the Potency was “inactive”. For CCN1C(=O)Cc2ccccc2C1C(=O)NCc1ccccc1Br (centres undefined), the Potency was inconclusive: 19.3 µM [inhibitor, partial curve]. With CC1(COc2ccccc2)COc2ccc(C(=O)N3CCOCC3c3ccncc3)cc2N1 (centres undefined) the Potency was inconclusive: 17.2 µM [inhibitor, partial curve]. With CCOc1ccc(C(O)Cn2ccn3nc(-c4ccccc4C)cc3c2=O)cc1 (centres undefined) the Potency was inconclusive: 13.7 µM [inhibitor, partial curve]. For Fc1ccc2c(c1)nc1n2[C@@H](CNCc2cnc3ccccc3c2)COC1, the Potency was inconclusive: 35.3 µM [inhibitor, partial curve]. For CCCC1=Nc2cc(C(=O)NCCc3ccc(OC)c(OC)c3)ccc2Sc2ccccc21, the Potency was inconclusive: 30.6 µM [inhibitor, single point]. In the case of COc1ccc(CN2C(=O)CO[C@H]3CN(Cc4ccc5c(c4)OCO5)C[C@H]32)cc1, the Potency is reported as active: 31.4 µM. With COc1ccc(C(=O)Nc2ccc(-c3noc([C@@H]4CCCN4Cc4ccc(OC(F)(F)F)cc4)n3)cn2)cc1 the Potency was active: 10.9 µM. For COc1ccc(NC(=O)O[C@@H]2CO[C@H]3[C@@H]2OC[C@@H]3NC(=S)Nc2ccc(Cl)cc2)cc1, the Potency was inconclusive: 21.7 µM [inhibitor, partial curve].

Source: PubChem BioAssay AID1347046 (National Center for Advancing Translational Sciences (NCATS), 2019)
Also: nearly all actives have a fitted effect of over 70% in size.
Potency is read from the fitted curve at half-maximal effect.
